The supplement of paper PMC10849652
Some of the results follow. Residues, ends and D or L forms follow the SMILES beside them. *: point of attachment. Cbz = O=C(OCc1ccccc1)*

The chains behind the UniProt entries cited, without tags or fusion partners. Where a name states a change or a piece, a line headed by the entry shows the natural chain unless it says otherwise.
UniProt P38646: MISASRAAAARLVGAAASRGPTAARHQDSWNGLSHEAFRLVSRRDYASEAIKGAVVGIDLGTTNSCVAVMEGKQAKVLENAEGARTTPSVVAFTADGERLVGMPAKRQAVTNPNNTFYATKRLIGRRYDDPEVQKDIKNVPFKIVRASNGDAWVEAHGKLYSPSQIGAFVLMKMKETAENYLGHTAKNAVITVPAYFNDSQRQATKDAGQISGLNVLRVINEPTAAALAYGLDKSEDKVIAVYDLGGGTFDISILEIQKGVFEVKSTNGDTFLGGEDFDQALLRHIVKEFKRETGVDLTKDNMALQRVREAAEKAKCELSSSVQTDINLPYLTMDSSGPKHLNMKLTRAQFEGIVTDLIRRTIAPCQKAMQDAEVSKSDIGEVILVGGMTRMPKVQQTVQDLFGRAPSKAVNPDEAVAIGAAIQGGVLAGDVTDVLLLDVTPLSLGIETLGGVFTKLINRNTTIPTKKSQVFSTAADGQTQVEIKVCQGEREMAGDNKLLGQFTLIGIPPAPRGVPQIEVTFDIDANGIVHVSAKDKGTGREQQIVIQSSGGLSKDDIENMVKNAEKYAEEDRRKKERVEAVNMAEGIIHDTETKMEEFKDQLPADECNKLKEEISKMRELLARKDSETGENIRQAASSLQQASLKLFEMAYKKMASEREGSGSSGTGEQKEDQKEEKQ
UniProt P31942: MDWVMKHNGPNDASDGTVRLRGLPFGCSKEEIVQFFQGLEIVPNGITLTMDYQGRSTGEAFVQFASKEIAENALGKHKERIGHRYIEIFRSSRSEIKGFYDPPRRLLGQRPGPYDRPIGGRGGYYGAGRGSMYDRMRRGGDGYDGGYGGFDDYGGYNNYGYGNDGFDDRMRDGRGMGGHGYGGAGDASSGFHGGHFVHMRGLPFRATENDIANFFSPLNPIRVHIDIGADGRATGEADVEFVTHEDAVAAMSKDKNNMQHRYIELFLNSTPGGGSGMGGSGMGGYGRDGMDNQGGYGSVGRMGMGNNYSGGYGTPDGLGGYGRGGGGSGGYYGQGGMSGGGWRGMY
UniProt Q58FG1, whole entry, looked up: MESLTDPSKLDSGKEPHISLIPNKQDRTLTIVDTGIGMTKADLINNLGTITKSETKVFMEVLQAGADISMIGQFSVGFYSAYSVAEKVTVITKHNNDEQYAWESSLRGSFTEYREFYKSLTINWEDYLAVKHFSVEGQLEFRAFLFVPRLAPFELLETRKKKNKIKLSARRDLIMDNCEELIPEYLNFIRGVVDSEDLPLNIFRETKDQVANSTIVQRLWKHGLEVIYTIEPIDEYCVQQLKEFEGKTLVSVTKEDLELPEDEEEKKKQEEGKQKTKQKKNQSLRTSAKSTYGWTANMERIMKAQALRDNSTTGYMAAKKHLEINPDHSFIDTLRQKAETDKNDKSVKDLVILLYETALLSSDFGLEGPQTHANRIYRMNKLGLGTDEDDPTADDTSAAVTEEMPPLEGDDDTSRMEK
UniProt P26583: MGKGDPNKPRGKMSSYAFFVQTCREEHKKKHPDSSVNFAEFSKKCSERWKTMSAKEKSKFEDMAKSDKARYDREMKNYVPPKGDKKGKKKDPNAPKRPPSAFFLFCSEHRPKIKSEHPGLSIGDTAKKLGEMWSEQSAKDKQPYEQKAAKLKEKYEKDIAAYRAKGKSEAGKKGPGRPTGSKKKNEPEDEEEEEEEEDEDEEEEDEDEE
UniProt P56937: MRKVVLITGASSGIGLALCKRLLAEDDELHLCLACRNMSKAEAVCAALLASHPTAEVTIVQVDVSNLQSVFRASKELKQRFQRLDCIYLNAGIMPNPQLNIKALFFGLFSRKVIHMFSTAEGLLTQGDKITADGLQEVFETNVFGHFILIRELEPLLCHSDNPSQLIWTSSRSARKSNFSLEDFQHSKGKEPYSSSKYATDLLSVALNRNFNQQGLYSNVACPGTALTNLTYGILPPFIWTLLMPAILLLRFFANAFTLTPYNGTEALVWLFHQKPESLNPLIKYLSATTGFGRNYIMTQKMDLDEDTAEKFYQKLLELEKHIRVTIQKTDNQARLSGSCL
UniProt Q6YN16: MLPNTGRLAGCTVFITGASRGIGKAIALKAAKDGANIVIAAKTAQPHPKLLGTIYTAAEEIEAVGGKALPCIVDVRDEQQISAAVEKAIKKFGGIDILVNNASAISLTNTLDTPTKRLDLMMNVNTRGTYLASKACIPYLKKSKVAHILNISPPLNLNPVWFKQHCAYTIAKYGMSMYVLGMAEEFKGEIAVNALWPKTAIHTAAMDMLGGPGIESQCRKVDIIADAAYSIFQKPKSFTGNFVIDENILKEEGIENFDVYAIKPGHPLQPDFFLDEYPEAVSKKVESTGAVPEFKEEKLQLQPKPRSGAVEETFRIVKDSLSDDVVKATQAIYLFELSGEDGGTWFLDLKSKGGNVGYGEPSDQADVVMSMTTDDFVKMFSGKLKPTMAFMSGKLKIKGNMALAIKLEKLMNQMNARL
UniProt Q9BTY7: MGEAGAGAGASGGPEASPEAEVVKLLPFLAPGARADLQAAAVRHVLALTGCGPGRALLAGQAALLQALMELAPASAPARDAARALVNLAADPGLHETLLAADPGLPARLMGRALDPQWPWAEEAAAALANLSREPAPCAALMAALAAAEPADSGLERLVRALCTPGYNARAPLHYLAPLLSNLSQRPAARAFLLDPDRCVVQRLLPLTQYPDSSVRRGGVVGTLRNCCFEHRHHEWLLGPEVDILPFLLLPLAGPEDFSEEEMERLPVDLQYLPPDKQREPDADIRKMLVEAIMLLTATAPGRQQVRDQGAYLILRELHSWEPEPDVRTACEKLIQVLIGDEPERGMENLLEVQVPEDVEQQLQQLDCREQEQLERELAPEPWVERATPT
UniProt Q53FT3: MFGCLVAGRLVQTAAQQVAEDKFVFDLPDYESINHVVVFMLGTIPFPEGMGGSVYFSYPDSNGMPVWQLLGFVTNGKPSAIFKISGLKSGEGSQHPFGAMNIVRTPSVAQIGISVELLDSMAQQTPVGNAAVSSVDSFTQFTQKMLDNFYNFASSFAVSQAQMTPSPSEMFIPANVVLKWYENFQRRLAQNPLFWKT
UniProt Q5SSJ5: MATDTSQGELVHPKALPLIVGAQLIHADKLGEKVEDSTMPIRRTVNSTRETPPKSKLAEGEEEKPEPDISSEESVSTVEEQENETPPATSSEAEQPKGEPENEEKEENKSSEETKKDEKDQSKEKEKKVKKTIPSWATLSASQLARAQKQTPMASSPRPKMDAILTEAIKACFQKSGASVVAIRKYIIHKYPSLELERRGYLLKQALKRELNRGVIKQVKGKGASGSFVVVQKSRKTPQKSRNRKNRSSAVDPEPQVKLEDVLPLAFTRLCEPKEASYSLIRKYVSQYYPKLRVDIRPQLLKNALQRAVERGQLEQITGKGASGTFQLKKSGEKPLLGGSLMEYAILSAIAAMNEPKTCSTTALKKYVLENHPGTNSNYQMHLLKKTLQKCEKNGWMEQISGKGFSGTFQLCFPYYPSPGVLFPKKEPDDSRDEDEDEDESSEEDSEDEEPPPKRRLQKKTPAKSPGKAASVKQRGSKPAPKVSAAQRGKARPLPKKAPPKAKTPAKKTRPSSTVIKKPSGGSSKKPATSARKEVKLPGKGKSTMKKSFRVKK
UniProt O75330: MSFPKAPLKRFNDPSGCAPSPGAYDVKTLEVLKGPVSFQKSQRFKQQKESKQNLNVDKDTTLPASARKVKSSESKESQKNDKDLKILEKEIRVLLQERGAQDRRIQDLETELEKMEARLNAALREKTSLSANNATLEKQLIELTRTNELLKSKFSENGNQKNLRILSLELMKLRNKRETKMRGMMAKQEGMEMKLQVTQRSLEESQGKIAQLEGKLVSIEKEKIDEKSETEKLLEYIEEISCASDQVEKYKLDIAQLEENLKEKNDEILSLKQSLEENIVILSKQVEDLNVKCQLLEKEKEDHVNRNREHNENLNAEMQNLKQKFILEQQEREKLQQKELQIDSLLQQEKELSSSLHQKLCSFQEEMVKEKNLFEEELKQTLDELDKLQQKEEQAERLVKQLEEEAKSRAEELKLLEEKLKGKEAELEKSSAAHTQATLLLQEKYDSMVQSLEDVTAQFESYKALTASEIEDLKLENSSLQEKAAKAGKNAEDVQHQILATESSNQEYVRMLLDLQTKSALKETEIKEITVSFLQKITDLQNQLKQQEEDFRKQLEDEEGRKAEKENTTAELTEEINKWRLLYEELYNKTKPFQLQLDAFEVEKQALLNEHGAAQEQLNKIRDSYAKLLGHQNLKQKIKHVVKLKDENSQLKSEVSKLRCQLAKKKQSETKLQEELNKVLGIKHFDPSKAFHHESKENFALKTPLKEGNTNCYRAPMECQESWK
UniProt Q9BUJ2: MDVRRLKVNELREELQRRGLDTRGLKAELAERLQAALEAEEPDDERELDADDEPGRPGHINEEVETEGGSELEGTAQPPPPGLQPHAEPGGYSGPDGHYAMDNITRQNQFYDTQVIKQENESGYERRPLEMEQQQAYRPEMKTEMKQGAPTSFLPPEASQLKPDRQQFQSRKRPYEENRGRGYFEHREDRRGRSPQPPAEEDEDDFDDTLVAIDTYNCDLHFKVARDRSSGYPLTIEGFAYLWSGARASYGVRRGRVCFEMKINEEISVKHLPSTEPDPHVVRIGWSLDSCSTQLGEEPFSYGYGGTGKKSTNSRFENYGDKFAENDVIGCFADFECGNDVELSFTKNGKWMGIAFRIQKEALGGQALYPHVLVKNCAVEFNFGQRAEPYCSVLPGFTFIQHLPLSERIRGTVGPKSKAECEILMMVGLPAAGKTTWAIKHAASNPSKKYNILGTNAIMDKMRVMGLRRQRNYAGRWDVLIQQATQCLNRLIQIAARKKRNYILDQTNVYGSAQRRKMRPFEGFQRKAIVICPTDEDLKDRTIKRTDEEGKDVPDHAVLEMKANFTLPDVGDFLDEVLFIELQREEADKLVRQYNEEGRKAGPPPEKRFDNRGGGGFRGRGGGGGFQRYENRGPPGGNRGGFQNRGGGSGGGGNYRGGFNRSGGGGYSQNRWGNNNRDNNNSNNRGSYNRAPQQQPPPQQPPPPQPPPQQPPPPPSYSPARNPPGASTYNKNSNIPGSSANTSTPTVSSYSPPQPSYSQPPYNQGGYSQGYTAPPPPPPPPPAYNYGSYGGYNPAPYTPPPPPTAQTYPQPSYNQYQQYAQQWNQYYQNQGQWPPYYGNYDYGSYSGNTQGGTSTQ
UniProt P50747: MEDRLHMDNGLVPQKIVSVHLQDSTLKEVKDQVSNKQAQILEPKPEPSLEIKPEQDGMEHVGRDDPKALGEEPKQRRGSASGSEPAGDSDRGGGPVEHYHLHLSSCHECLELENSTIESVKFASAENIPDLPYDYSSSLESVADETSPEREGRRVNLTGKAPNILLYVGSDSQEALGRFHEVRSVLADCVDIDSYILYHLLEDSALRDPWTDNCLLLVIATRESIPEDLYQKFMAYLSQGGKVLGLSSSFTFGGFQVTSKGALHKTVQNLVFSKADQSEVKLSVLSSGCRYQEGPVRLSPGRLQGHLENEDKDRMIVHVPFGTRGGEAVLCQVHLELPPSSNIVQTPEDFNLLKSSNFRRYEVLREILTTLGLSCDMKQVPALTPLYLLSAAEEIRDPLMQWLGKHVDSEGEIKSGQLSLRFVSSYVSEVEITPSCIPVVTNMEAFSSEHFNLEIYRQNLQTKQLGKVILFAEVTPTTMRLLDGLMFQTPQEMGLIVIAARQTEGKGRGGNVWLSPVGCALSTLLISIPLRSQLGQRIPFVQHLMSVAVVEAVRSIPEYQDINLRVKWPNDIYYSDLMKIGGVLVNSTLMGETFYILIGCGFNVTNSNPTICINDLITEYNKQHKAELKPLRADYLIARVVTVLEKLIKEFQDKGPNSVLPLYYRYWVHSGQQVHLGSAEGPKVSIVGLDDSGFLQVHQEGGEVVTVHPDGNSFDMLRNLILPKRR

What was measured:
Assay in all cases: log2 fold change, soluble protein after heating vs DMSO (PISA); higher = thermal stabilisation; K562 cells, 10 uM, 30 min; active = over 0.2 and 3.5 SD of the protein, either way, in both replicates (recomputed)
IRAK-1-4 Inhibitor I = compound: C1COCCN1CCN2C3=CC=CC=C3N=C2NC(=O)C4=CC(=CC=C4)[N+](=O)[O-] [IRAK-1-4 Inhibitor I]
Summary of the method: (§1)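 Soluble protein was defined as the supernatant after 21,000xg for 90 min. It came from K562 cells at 2×10^6 cells/mL given 10 μM compound for 30 min, heated in aliquots for 3 min across 48°C-58°C, pooled, and extracted in PBS with 0.5% NP-40 at 4°C, and was quantified by TMTpro 16plex LC-MS/MS with equalised channel sums. Thermal stability against control samples, from duplicates, is reported as log2 fold change.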

ibrutinib = compound: C=CC(=O)N1CCC[C@@H](n2nc(-c3ccc(Oc4ccccc4)cc3)c3c(N)ncnc32)C1 [ibrutinib]
Summary of the method: as §1

[1] = compound: CC(=O)c1cnc2ccc(-c3cc(Cl)c(O)c(Cl)c3)nc2c1N[C@H]1CC[C@H](CN(C)C)CC1
Summary of the method: as §1

ralimetinib = compound: CC(C)(C)Cn1c(N)nc2ccc(-c3[nH]c(C(C)(C)C)nc3-c3ccc(F)cc3)nc21 [ralimetinib]
Summary of the method: as §1

[2] = compound: CC(C)(O)CC(=O)NCCn1ccc2ncnc(Nc3ccc(Oc4cccc(C(F)(F)F)c4)c(Cl)c3)c21
Summary of the method: as §1

[3] = compound: CC(C)C1=C2N=C(C=C(N2N=C1)NCC3=CC=CC=C3)NCCCCCCN
Summary of the method: as §1

[4] = compound: CC(C)C[C@@H](C=O)NC(=O)[C@H](CC(C)C)NC(=O)[C@H](CC(C)C)NC(=O)OCc1ccccc1
Summary of the method: as §1

pinometostat = compound: CC(C)N(C[C@H]1O[C@@H](n2cnc3c(N)ncnc32)[C@H](O)[C@@H]1O)[C@H]1C[C@@H](CCc2nc3cc(C(C)(C)C)ccc3[nH]2)C1 [pinometostat]
Summary of the method: as §1

[5] = compound: CC1=C(C(CC(=O)N1)C2=CC=C(C=C2)C(F)(F)F)C(=O)NC3=C(C=C4C(=C3)C=NN4)F
Summary of the method: as §1

[6] = compound: CC1=C(C2=C(C=C1)C(=O)C3=CC=CC=C3N2CCCN)C
Summary of the method: as §1

Question: With HSPA9 (UniProt P38646) as the target, how does the log2 fold change (IRAK-1-4 Inhibitor I) read?
Answer: The log2 fold change was inactive: 0.065.

Question: And the log2 fold change (ibrutinib)?
Answer: Its log2 fold change is inactive: -0.001.

Question: What about the log2 fold change [1] of the same target?
Answer: Its log2 fold change is inactive: 0.006.

Question: And the log2 fold change (ralimetinib)?
Answer: The log2 fold change was inactive: -0.027.

Question: What about the log2 fold change [2] of the same target?
Answer: Its log2 fold change is inactive: 0.004.

Question: What about the log2 fold change [3] of the same target?
Answer: The log2 fold change was inactive: -0.002.

Question: And the log2 fold change [4]?
Answer: The log2 fold change was inactive: -0.008.

Question: And the log2 fold change (pinometostat)?
Answer: Its log2 fold change is inactive: -0.018.

Question: What about the log2 fold change [5] of the same target?
Answer: Its log2 fold change is inactive: 0.039.

Question: And the log2 fold change [6]?
Answer: Its log2 fold change is inactive: -0.018.

Question: With HNRNPH3 (UniProt P31942) as the target, how does the log2 fold change (IRAK-1-4 Inhibitor I) read?
Answer: The log2 fold change was inactive: -0.158.

Question: What about the log2 fold change (ibrutinib) of the same target?
Answer: Its log2 fold change is inactive: -0.044.

Question: What about the log2 fold change [1] of the same target?
Answer: Its log2 fold change is inactive: 0.098.

Question: And the log2 fold change (ralimetinib)?
Answer: Its log2 fold change is inactive: 0.243.

Question: And the log2 fold change [2]?
Answer: Its log2 fold change is inactive: -0.011.

Question: And the log2 fold change [3]?
Answer: The log2 fold change was inactive: -0.329.

Question: And the log2 fold change [4]?
Answer: The log2 fold change was inactive: 0.248.

Question: What about the log2 fold change (pinometostat) of the same target?
Answer: Its log2 fold change is inactive: 0.282.

Question: What about the log2 fold change [5] of the same target?
Answer: The log2 fold change was inactive: 0.13.

Question: What about the log2 fold change [6] of the same target?
Answer: Its log2 fold change is inactive: -0.222.

Question: What does the source list for HSP90AA4P (UniProt Q58FG1)?
Answer: log2 fold change (IRAK-1-4 Inhibitor I): inactive: -0.037; log2 fold change (ibrutinib): inactive: -0.036; log2 fold change [1]: inactive: -0.055; log2 fold change (ralimetinib): inactive: -0.026; log2 fold change [2]: inactive: -0.009; log2 fold change [3]: inactive: -0.036; log2 fold change [4]: inactive: 0.103; log2 fold change (pinometostat): inactive: 0.033; log2 fold change [5]: inactive: 0; log2 fold change [6]: inactive: -0.025

Question: Which results are given for HMGB2 (UniProt P26583)?
Answer: log2 fold change (IRAK-1-4 Inhibitor I): inactive: 0.069; log2 fold change (ibrutinib): inactive: 0.043; log2 fold change [1]: inactive: 0.054; log2 fold change (ralimetinib): inactive: 0.036; log2 fold change [2]: inactive: 0.043; log2 fold change [3]: inactive: 0.118; log2 fold change [4]: inactive: -0.037; log2 fold change (pinometostat): inactive: -0.058; log2 fold change [5]: inactive: 0.017; log2 fold change [6]: inactive: 0.079

Question: What does the source list for HSD17B7 (UniProt P56937)?
Answer: log2 fold change (IRAK-1-4 Inhibitor I): inactive: -0.011; log2 fold change (ibrutinib): inactive: 0.039; log2 fold change [1]: inactive: -0.035; log2 fold change (ralimetinib): inactive: -0.029; log2 fold change [2]: inactive: -0.047; log2 fold change [3]: inactive: -0.177; log2 fold change [4]: inactive: -0.085; log2 fold change (pinometostat): inactive: -0.039; log2 fold change [5]: inactive: -0.005; log2 fold change [6]: inactive: 0.047

Question: For HSDL2 (UniProt Q6YN16), which log2 fold change (IRAK-1-4 Inhibitor I) is on record?
Answer: Its log2 fold change is inactive: 0.021.

Question: What about the log2 fold change (ibrutinib) of the same target?
Answer: Its log2 fold change is inactive: 0.008.

Question: What about the log2 fold change [1] of the same target?
Answer: The log2 fold change was inactive: -0.087.

Question: What about the log2 fold change (ralimetinib) of the same target?
Answer: The log2 fold change was inactive: -0.055.

Question: What about the log2 fold change [2] of the same target?
Answer: Its log2 fold change is inactive: -0.209.

Question: And the log2 fold change [3]?
Answer: The log2 fold change was inactive: -0.026.

Question: And the log2 fold change [4]?
Answer: Its log2 fold change is inactive: -0.028.

Question: What about the log2 fold change (pinometostat) of the same target?
Answer: Its log2 fold change is inactive: -0.089.

Question: And the log2 fold change [5]?
Answer: Its log2 fold change is inactive: -0.034.

Question: And the log2 fold change [6]?
Answer: Its log2 fold change is inactive: 0.095.

Question: How did the log2 fold change (IRAK-1-4 Inhibitor I) turn out when HGH1 (UniProt Q9BTY7) was run?
Answer: The log2 fold change was inactive: -0.057.

Question: And the log2 fold change (ibrutinib)?
Answer: The log2 fold change was inactive: -0.005.

Question: And the log2 fold change [1]?
Answer: The log2 fold change was inactive: 0.128.

Question: And the log2 fold change (ralimetinib)?
Answer: Its log2 fold change is inactive: 0.244.

Question: And the log2 fold change [2]?
Answer: Its log2 fold change is inactive: -0.061.

Question: And the log2 fold change [3]?
Answer: Its log2 fold change is inactive: 0.089.

Question: And the log2 fold change [4]?
Answer: Its log2 fold change is inactive: 0.228.

Question: What about the log2 fold change (pinometostat) of the same target?
Answer: Its log2 fold change is inactive: -0.01.

Question: What about the log2 fold change [5] of the same target?
Answer: The log2 fold change was inactive: -0.031.

Question: What about the log2 fold change [6] of the same target?
Answer: Its log2 fold change is inactive: 0.09.

Question: HIKESHI (UniProt Q53FT3) was tested. Which log2 fold change (IRAK-1-4 Inhibitor I) did it give?
Answer: The log2 fold change was inactive: 0.013.

Question: What about the log2 fold change (ibrutinib) of the same target?
Answer: The log2 fold change was inactive: -0.041.

Question: And the log2 fold change [1]?
Answer: Its log2 fold change is inactive: 0.023.

Question: What about the log2 fold change (ralimetinib) of the same target?
Answer: Its log2 fold change is active: -0.305.

Question: What about the log2 fold change [2] of the same target?
Answer: Its log2 fold change is inactive: -0.045.

Question: And the log2 fold change [3]?
Answer: Its log2 fold change is inactive: -0.007.

Question: What about the log2 fold change [4] of the same target?
Answer: The log2 fold change was inactive: -0.194.

Question: What about the log2 fold change (pinometostat) of the same target?
Answer: The log2 fold change was inactive: 0.062.

Question: What about the log2 fold change [6] of the same target?
Answer: The log2 fold change was inactive: 0.061.

Question: Which results are given for HP1BP3 (UniProt Q5SSJ5)?
Answer: log2 fold change (IRAK-1-4 Inhibitor I): inactive: -0.097; log2 fold change (ibrutinib): inactive: 0.003; log2 fold change [1]: inactive: 0.051; log2 fold change (ralimetinib): inactive: 0.089; log2 fold change [2]: inactive: -0.013; log2 fold change [3]: inactive: -0.031; log2 fold change [4]: inactive: 0.063; log2 fold change (pinometostat): inactive: 0.092; log2 fold change [6]: active: -0.387

Question: What does the source list for HRAS (UniProt P01112)?
Answer: log2 fold change (IRAK-1-4 Inhibitor I): inactive: 0.093; log2 fold change (ibrutinib): inactive: 0.143; log2 fold change [1]: inactive: 0.065; log2 fold change (ralimetinib): inactive: 0; log2 fold change [2]: inactive: -0.004; log2 fold change [3]: inactive: 0.047; log2 fold change [4]: inactive: 0.13; log2 fold change (pinometostat): inactive: -0.059; log2 fold change [6]: inactive: -0.121

Question: With HMMR isoform 3 (UniProt O75330) as the target, how does the log2 fold change (IRAK-1-4 Inhibitor I) read?
Answer: The log2 fold change was inactive: -0.076.

Question: What about the log2 fold change (ibrutinib) of the same target?
Answer: Its log2 fold change is inactive: -0.031.

Question: What about the log2 fold change [1] of the same target?
Answer: The log2 fold change was inactive: 0.005.

Question: And the log2 fold change (ralimetinib)?
Answer: The log2 fold change was inactive: 0.066.

Question: What about the log2 fold change [2] of the same target?
Answer: The log2 fold change was inactive: -0.022.

Question: And the log2 fold change [3]?
Answer: The log2 fold change was inactive: -0.121.

Question: What about the log2 fold change [4] of the same target?
Answer: The log2 fold change was inactive: 0.128.

Question: What about the log2 fold change (pinometostat) of the same target?
Answer: Its log2 fold change is inactive: 0.155.

Question: And the log2 fold change [5]?
Answer: Its log2 fold change is inactive: -0.014.

Question: And the log2 fold change [6]?
Answer: The log2 fold change was inactive: 0.064.

Question: For HNRNPUL1 (UniProt Q9BUJ2), which log2 fold change (IRAK-1-4 Inhibitor I) is on record?
Answer: Its log2 fold change is inactive: -0.055.

Question: What about the log2 fold change (ibrutinib) of the same target?
Answer: Its log2 fold change is inactive: 0.

Question: What about the log2 fold change [1] of the same target?
Answer: The log2 fold change was inactive: -0.072.

Question: And the log2 fold change (ralimetinib)?
Answer: Its log2 fold change is inactive: 0.005.

Question: What about the log2 fold change [2] of the same target?
Answer: The log2 fold change was inactive: 0.027.

Question: What about the log2 fold change [3] of the same target?
Answer: Its log2 fold change is inactive: 0.007.

Question: What about the log2 fold change [4] of the same target?
Answer: The log2 fold change was inactive: 0.035.

Question: What about the log2 fold change (pinometostat) of the same target?
Answer: The log2 fold change was inactive: 0.01.

Question: And the log2 fold change [6]?
Answer: The log2 fold change was inactive: -0.096.

Question: HLCS (UniProt P50747) was tested. Which log2 fold change (IRAK-1-4 Inhibitor I) did it give?
Answer: The log2 fold change was inactive: 0.024.

Question: And the log2 fold change (ibrutinib)?
Answer: The log2 fold change was inactive: 0.014.

Question: And the log2 fold change [1]?
Answer: The log2 fold change was inactive: -0.003.

Question: What about the log2 fold change (ralimetinib) of the same target?
Answer: The log2 fold change was inactive: 0.013.

Question: What about the log2 fold change [2] of the same target?
Answer: The log2 fold change was inactive: -0.016.

Question: And the log2 fold change [3]?
Answer: The log2 fold change was inactive: -0.054.

Question: What about the log2 fold change [4] of the same target?
Answer: Its log2 fold change is inactive: -0.044.

Question: What about the log2 fold change (pinometostat) of the same target?
Answer: Its log2 fold change is inactive: -0.003.

Question: And the log2 fold change [5]?
Answer: The log2 fold change was inactive: -0.003.

Question: What about the log2 fold change [6] of the same target?
Answer: Its log2 fold change is inactive: 0.006.

Question: Which results are given for HMCN1 (UniProt Q96RW7)?
Answer: log2 fold change (IRAK-1-4 Inhibitor I): inactive: 0.097; log2 fold change (ibrutinib): inactive: 0.244; log2 fold change [1]: inactive: 0.103; log2 fold change (ralimetinib): inactive: 0.006; log2 fold change [2]: inactive: 0.326; log2 fold change [3]: inactive: 0.146; log2 fold change [4]: inactive: -0.08; log2 fold change (pinometostat): inactive: -0.259; log2 fold change [5]: inactive: 0.047; log2 fold change [6]: inactive: -0.237
